Assay results published in paper PMC11234209.
Results are given in words; binding and its absence hold for the method and conditions named. In cells and extracts the contact can be indirect. Some results given as binding are weak or reduced against the parent protein; the word gives no strength. For some assays here: Where a sequence is shown, tags or fusion partners need not be part of it. Blank lines part the entries; values can stand above or below the binder they belong to.

Protein sequences, listed by entry. Tags and fused reporters are not part of them.
UniProt P54578: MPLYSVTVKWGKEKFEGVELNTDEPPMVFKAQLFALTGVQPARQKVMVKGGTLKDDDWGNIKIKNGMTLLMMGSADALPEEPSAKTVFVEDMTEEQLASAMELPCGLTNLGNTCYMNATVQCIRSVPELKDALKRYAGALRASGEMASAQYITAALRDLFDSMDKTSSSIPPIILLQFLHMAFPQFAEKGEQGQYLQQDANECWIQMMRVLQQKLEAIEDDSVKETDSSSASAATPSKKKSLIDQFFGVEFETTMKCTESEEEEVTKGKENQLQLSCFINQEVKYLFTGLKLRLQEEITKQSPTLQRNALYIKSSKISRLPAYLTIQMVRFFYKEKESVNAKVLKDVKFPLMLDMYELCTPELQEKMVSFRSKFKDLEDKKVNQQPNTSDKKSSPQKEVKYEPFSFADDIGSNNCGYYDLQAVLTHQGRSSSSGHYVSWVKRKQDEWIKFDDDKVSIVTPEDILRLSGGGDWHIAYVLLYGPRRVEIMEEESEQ

How the values were obtained:
[1] = target: exogenous USP14 (cotransfected with GFP-CIB1) (human) (UniProt P54578); assay: co-IP; HEK293T and PLC-R cells cotransfected with exogenous CIB1 and USP14; reciprocal co-IP with anti-Flag antibodies (Fig. 3i; Fig. S3e); Western blot
[2] = target: ubiquitin-specific protease 14 (USP14), endogenous (human (endogenous in PLC-R)) (UniProt P54578); assay: co-IP; endogenous proteins (Fig. S3g); cell line and precipitating antibody not stated

- binding [1]: binds
B1: GFP-CIB1 (protein, UniProt Q99828 1-191)
chain: MGGSGSRLSKELLAEYQDLTFLTKQEILLAHRRFCELLPQEQRSVESSLRAQVPFEQILSLPELKANPFKERICRVFSTSPAKDSLSFEDFLDLLSVFSDTATPDIKSHYAFRIFDFDDDGTLNREDLSRLVNCLTGEGEDTRLSASEMKQLIDNILEESDIDRDGTINLSEFQHVISRSPDFASSFKIVL

- binding [2]: binds
B2: calcium- and integrin-binding protein 1 (CIB1), endogenous (protein, UniProt Q99828 1-191)
chain: B1 chain
